Data published in patent US4406883A, “Controlled release suppositories consisting essentially of a linear polymer particularly, polyvinyl pyrrolidones” (Merrell Dow Pharmaceuticals Inc., priority 1981, dated 1983).
Where a name gives a salt, the structure may show the parent alone.

Tests used:
[1] = cited from earlier work

Compound: CCN(CC)CC(=O)Nc1c(C)cccc1C [lignocaine hydrochloride]
- absorption after rectal administration (dog, result in words): well absorbed
- % total administered dose excreted, total faeces (male beagle, rectal, 48 h): 8%
- oral dose metabolised in passing through the liver in the portal circulation [1]: approximately 65%
